From PubChem BioAssay AID1487 (National Center for Advancing Translational Sciences (NCATS), 2009)
Values joined by “and” are separate entries in the source; they are usually repeats but may differ in a detail not shown here. Equal values may be shown once. Some of the results follow. Further columns of the screen follow, without active or inactive calls. The list favours compounds with an active or inconclusive main result. The note in brackets gives the kind of curve behind each potency; many fits are weak.

Experiment: qHTS Assay for Modulators of Lamin A Splicing
Settings: HeLa LMNA splicing GFP/RFP minigene ratio, 48 h
Summary of the method: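 Read-out is the ratio of GFP to DsRed2 object intensity, acquired by 488 nm laser-scanning cytometry on HeLa lamin A-EGFP minigene reporter cells. Compound incubation 48 hrs at 37 °C in Opti-MEM with 2% FBS; DMSO 0.5% final.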

[1] = measured here: GFP splicing reporter channel
[2] = measured here: RFP viability control channel

Row | Structure (SMILES) | AC50 [1] | AC50 [2]
1 | Cc1cc2c(C(C)C)c(O)c(O)c(C=O)c2c(O)c1-c1c(C)cc2c(C(C)C)c(O)c(O)c(C=O)c2c1O | 12.6 µM [falling, single point] and 14.1 µM [falling, partial curve] | 2.24 µM [rising, single point] and 7.94 µM [falling, partial curve]
2 | CCC(C)N1C(=O)/C(=C\c2cc3c4c(c2)CCCN4CCC3)C(=O)NC1=S (stereo not given) | – | 3.98 µM [falling, partial curve, poor fit]
3 | C[C@@H](N)[C@@H](O)c1ccc(O)c(O)c1 | 12.6 µM [rising, partial curve, poor fit] | 2.24 µM [rising, partial curve, poor fit]
4 | CCCN1CC[C@@H]2c3cc(O)ccc3CC[C@@H]21 | 0.00708 µM [rising, full curve, poor fit] | 0.00891 µM [rising, full curve, poor fit]
5 | O=c1[nH]c2ccccc2n1C1CCN(CCCC(c2ccc(F)cc2)c2ccc(F)cc2)CC1 | 2.51 µM [falling, partial curve, poor fit] and 3.16 µM [falling, partial curve, poor fit] and 15.8 µM [falling, partial curve] | –
6 | Cc1ccc(-c2nn(C)c(=O)c3ccccc23)cc1CNC(=O)/C=C/c1ccccc1 | 56.2 µM [falling, partial curve, poor fit] | 39.8 µM [falling, partial curve, poor fit]
7 | O=C1C2CCN(CC2)C1Cc1ccc(OCc2ccccc2)cc1 (stereo not given) | 0.316 µM [falling, partial curve, poor fit] | 14.1 µM [falling, partial curve, poor fit]
8 | CC(=O)[O][Hg][c]1ccccc1 | 25.1 µM [falling, partial curve, poor fit] | 22.4 µM [falling, partial curve, poor fit]
9 | O=C(Cn1c(=O)oc2cc(S(=O)(=O)N3CCCC3)ccc21)Nc1cccc(C(F)(F)F)c1 | 2 µM [rising, full curve] | 4.47 µM [rising, full curve]
10 | O=C(c1ccc(N2CCCCC2)c([N+](=O)[O-])c1)N1CCC2(CC1)OCCO2 | 0.708 µM [falling, partial curve, poor fit] | –
11 | O=C(CN1CCCCC1)c1ccccc1F | 7.94 µM [falling, partial curve] | –
12 | COc1ccc2ccc(O)c(CN3CC=C(c4ccccc4)CC3)c2c1 | 0.0178 µM [falling, full curve, poor fit] | –
13 | C[C@H](NC(C)(C)C)C(=O)c1cccc(Cl)c1 | 0.00398 µM [falling, full curve, poor fit] | –
14 | O=c1[nH]c(=S)n(-c2ccc(Br)cc2)c(O)c1C=Nc1ccc(N2CCOCC2)cc1 | 12.6 µM [rising, single point] | 22.4 µM [rising, single point]
15 | O=C(Nc1ccc(Br)cc1)c1cc(Br)cc(Br)c1O | 0.708 µM [rising, full curve, poor fit] | 5.62 µM [rising, partial curve, poor fit]
16 | CNC[C@H](O)c1ccc(OC(=O)C(C)(C)C)c(OC(=O)C(C)(C)C)c1 | 7.94 µM [falling, partial curve, poor fit] | –
17 | O=C(N/N=C\c1ccc(COc2ccc([N+](=O)[O-])cc2)o1)c1cccc(Cl)c1 | 28.2 µM [rising, single point] | 35.5 µM [rising, single point]
18 | CCCSc1ccc2nc(NC(=O)OC)[nH]c2c1 | 100 nM [falling, full curve] and 2.82 µM [rising, full curve] | 398 nM [rising, full curve] and 1.12 µM [rising, full curve]
19 | COC(=O)[C@@H]1[C@@H]2C[C@H]3c4[nH]c5cc(OC)ccc5c4CCN3C[C@@H]2C[C@H](OC(=O)/C=C\c2cc(OC)c(OC)c(OC)c2)[C@H]1OC | 0.501 µM [falling, partial curve, poor fit] | 14.1 µM [falling, single point]
20 | Cn1c(=O)oc2cc(S(=O)(=O)NC3CCCCCCC3)ccc21 | – | 14.1 µM [rising, partial curve]
21 | COc1ccc2c3c1O[C@H]1C(=O)CC[C@H]4[C@@H](C2)N(C)CC[C@]314 | 6.31 µM [falling, partial curve, poor fit] | 8.91 µM [falling, partial curve, poor fit]
22 | CCOc1c(Cl)cc(CNc2ccc(S(N)(=O)=O)cc2)cc1OC | – | 10 µM [rising, partial curve]
23 | Cc1ccc(NC(=O)N(Cc2ccc3c(c2)OCO3)C2CCN(Cc3ccccc3)CC2)cc1F | – | 35.5 µM [rising, single point]
24 | CN(C)C(=O)Oc1ccc[n+](C)c1 | – | 0.891 µM [rising, partial curve]
25 | O=C(c1cccc([N+](=O)[O-])c1)C12CN3CN(CN(C3)C1)C2 | 0.501 µM [rising, full curve, poor fit] | –
26 | Cc1cccc(OP(=O)(Nc2ccc(F)cc2)Oc2cccc(C)c2)c1 | 6.31 µM [rising, partial curve] | 12.6 µM [rising, partial curve]
27 | O=[N+]([O-])/C=C/c1c(OCc2ccccc2)ccc2ccccc12 | – | 17.8 µM [rising, partial curve]
28 | O=c1[nH]c(SCc2ccccc2Cl)nc2c1CCCC2 | 35.5 µM [rising, single point] | 31.6 µM [rising, single point]
29 | COc1ccc(OC)c(NC2=NCCCS2)c1 | – | 0.398 µM [falling, full curve, poor fit]
30 | O=C1C2CCCN2C(c2cccnc2)N1c1ccc(Cl)cc1 (stereo not given) | – | 11.2 µM [rising, single point]

Single entries from the entries so far.
O=C(Nc1ccc(Br)cc1)c1cc(Br)cc(Br)c1O – AC50 [1]: 0.708 µM [rising, full curve, poor fit]
O=C(CN1CCCCC1)c1ccccc1F – AC50 [1]: 7.94 µM [falling, partial curve]
